# Assay results taken from the supplement of paper PMC10849652.
# The chains behind the UniProt entries cited, without tags or fusion partners. Where a name states a change or a piece, a line headed by the entry shows the natural chain unless it says otherwise.
# UniProt Q96KR6: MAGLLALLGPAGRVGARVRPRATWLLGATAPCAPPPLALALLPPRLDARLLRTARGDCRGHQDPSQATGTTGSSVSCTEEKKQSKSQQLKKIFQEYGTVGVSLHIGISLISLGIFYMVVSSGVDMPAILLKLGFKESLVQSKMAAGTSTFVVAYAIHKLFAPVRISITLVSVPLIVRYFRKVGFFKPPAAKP
# UniProt Q8N8J7: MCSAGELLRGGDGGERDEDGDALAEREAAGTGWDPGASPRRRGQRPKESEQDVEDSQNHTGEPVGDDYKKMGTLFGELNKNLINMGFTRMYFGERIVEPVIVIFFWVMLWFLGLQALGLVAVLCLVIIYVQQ
# UniProt Q9H4M3: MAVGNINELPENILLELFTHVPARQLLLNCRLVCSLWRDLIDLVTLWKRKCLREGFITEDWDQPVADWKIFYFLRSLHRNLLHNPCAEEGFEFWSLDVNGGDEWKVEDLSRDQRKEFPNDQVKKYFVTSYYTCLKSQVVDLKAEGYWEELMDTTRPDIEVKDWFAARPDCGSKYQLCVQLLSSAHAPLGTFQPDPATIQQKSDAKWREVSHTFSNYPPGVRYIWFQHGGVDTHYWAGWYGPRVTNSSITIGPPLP
# UniProt P39748, whole entry, looked up: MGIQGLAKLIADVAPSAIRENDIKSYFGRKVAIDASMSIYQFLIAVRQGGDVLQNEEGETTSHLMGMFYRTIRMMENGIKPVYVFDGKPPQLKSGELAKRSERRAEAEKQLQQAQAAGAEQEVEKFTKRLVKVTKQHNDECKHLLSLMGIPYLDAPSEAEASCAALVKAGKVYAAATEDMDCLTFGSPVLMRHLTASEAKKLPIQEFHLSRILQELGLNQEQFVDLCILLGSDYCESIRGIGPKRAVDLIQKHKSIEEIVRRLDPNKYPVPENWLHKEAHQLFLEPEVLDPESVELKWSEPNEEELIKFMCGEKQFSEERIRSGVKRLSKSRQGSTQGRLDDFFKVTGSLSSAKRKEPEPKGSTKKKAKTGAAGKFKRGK
# UniProt Q8TB52: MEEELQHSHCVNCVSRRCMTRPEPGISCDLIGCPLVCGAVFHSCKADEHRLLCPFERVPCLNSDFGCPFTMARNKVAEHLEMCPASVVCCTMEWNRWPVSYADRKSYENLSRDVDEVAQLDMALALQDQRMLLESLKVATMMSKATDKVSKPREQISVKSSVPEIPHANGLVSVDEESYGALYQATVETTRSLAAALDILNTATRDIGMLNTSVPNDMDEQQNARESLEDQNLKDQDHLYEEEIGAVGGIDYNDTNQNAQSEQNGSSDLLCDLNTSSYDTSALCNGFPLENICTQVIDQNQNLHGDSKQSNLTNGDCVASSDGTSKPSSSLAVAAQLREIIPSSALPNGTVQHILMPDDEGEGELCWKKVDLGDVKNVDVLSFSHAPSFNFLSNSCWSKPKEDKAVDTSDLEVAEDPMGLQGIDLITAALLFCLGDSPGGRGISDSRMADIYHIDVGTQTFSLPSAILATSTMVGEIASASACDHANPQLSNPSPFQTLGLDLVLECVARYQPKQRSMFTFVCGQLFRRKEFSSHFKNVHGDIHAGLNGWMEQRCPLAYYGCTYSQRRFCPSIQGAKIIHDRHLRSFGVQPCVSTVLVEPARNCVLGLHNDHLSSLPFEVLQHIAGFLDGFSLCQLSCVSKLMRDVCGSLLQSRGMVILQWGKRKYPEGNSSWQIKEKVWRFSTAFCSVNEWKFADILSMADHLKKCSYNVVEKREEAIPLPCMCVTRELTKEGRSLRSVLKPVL
# UniProt Q8NFZ0: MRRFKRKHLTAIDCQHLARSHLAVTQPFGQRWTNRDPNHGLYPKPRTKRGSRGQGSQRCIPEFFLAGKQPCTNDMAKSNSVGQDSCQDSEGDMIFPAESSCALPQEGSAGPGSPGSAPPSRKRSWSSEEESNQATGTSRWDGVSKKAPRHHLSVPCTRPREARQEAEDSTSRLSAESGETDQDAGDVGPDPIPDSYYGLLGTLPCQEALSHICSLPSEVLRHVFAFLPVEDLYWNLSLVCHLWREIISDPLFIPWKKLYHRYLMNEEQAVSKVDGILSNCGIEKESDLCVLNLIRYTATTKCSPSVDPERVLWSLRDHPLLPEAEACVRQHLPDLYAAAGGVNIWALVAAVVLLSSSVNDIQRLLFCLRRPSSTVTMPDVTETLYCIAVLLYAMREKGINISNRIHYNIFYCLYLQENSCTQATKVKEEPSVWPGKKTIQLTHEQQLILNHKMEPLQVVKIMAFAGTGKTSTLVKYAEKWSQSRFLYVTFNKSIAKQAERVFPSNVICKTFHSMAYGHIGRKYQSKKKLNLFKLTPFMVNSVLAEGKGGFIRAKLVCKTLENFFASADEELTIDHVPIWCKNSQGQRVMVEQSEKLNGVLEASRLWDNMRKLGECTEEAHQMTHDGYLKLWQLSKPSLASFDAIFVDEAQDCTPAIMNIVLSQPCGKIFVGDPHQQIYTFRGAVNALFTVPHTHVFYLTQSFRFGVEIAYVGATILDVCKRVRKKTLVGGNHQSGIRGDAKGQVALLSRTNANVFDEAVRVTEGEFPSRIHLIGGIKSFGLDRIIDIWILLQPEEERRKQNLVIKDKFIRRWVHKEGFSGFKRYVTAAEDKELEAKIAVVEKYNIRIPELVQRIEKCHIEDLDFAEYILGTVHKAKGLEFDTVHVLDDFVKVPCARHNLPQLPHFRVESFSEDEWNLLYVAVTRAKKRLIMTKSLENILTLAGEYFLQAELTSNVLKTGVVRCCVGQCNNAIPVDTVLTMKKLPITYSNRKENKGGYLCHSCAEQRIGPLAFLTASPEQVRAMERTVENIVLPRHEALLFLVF
# UniProt Q5T0N5: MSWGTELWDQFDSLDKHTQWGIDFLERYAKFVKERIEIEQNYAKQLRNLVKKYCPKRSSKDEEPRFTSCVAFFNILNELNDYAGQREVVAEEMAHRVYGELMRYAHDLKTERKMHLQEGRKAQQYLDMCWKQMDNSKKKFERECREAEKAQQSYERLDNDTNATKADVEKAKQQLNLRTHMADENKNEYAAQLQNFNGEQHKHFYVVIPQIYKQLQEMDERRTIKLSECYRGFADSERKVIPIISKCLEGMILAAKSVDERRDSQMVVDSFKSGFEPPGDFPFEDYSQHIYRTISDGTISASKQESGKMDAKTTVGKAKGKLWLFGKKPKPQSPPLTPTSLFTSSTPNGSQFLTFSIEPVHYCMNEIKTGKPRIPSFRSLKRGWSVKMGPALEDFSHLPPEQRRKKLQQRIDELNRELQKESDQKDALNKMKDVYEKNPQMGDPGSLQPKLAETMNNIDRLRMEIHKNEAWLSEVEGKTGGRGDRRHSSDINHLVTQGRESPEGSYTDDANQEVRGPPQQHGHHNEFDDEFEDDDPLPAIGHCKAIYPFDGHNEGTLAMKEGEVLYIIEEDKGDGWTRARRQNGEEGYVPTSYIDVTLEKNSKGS
# UniProt Q8IW50: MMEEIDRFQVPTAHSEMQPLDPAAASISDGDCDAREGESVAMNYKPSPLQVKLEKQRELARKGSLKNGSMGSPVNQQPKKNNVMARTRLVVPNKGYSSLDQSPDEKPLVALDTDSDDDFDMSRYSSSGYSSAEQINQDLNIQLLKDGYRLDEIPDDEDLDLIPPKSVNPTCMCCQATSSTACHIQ
# UniProt B1AJZ9: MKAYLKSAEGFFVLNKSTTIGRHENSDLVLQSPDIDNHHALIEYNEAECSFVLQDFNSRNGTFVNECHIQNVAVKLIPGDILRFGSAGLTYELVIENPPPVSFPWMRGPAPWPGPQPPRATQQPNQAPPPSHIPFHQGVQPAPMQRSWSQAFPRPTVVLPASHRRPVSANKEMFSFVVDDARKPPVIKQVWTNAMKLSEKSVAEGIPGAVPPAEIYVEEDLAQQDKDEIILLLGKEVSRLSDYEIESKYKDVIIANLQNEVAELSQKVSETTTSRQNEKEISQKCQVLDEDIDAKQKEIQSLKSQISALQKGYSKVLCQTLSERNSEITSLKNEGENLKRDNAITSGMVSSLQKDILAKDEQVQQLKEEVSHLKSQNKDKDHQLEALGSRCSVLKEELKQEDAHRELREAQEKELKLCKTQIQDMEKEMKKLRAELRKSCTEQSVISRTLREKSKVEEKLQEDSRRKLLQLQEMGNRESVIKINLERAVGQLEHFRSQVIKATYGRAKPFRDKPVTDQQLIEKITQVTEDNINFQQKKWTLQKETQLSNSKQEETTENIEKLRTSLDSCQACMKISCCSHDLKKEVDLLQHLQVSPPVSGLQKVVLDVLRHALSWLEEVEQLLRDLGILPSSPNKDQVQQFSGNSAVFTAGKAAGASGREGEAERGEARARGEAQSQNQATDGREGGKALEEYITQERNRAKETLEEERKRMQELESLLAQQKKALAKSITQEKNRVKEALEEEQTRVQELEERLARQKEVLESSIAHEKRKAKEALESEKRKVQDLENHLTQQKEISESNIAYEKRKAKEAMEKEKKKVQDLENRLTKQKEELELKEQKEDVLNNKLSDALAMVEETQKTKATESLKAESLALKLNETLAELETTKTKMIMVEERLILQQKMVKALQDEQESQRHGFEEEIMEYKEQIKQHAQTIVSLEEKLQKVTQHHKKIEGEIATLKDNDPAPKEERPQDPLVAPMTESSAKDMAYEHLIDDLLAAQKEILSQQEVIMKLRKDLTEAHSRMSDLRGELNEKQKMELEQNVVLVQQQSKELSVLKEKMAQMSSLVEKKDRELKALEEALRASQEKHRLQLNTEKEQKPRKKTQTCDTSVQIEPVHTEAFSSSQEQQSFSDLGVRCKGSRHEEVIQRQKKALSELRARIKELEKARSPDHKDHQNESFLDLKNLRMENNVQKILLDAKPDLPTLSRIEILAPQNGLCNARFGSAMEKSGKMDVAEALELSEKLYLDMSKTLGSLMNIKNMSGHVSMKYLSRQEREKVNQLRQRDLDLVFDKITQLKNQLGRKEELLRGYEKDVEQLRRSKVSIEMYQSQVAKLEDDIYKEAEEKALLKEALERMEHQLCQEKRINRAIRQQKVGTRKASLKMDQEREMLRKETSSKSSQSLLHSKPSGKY
# UniProt Q9H9S5: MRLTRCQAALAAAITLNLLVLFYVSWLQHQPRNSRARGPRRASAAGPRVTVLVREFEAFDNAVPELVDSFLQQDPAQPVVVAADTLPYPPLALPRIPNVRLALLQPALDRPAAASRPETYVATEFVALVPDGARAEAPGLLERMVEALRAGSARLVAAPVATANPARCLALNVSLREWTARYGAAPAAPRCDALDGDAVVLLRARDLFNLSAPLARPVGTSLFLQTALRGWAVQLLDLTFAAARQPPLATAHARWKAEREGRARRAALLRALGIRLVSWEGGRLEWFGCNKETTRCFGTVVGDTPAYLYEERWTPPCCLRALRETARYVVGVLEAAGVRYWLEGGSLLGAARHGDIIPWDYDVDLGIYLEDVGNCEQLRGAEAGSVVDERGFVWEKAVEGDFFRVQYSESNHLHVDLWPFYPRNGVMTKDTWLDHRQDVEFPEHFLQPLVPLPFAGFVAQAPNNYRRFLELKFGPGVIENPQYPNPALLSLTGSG
# UniProt Q14192: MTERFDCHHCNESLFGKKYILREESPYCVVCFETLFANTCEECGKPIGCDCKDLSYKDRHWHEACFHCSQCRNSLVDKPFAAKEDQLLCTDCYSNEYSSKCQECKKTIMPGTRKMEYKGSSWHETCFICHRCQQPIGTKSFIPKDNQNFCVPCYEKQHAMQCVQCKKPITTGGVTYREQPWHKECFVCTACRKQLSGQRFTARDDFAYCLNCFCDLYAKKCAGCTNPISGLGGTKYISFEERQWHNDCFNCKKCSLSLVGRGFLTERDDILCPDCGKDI
# UniProt O43427: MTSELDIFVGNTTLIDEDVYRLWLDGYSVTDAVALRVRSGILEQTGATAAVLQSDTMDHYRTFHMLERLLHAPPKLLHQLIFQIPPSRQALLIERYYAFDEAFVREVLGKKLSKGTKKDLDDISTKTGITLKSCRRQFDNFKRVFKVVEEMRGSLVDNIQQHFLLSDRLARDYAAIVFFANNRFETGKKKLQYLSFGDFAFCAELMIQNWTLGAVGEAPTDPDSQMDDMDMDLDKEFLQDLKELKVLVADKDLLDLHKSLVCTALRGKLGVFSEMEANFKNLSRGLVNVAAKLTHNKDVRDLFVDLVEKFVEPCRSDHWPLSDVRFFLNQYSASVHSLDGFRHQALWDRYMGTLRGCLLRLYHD
# UniProt P02675: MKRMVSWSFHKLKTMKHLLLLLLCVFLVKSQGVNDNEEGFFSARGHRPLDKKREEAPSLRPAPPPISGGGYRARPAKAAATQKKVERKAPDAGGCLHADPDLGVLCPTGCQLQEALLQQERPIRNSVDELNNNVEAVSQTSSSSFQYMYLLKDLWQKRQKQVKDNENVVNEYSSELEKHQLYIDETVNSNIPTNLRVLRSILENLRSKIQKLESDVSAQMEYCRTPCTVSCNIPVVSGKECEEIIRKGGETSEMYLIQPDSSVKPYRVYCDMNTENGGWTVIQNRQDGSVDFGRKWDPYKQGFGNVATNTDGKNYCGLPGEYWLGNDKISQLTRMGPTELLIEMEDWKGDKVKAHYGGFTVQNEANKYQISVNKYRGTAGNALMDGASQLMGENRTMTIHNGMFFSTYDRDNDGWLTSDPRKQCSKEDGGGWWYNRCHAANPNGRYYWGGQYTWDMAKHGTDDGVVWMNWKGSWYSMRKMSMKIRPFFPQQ
# The list shows a part of the results.
# Tests used:
# Assay in all cases: log2 fold change, soluble protein after heating vs DMSO (PISA); higher = thermal stabilisation; K562 cells, 10 uM, 30 min; active = over 0.2 and 3.5 SD of the protein, either way, in both replicates (recomputed)
# bafetinib = compound: Cc1ccc(NC(=O)c2ccc(CN3CC[C@H](N(C)C)C3)c(C(F)(F)F)c2)cc1Nc1nccc(-c2cncnc2)n1 [bafetinib]
# How it was run: (§1)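 Quantification of soluble protein used TMTpro 16plex LC-MS/MS, with channel sums equalised. Samples were the supernatant after 21,000xg for 90 min of pooled aliquots from K562 cells (2×10^6 cells/mL) treated with 10 μM compound for 30 min, heated for 3 min over 48°C-58°C, and extracted in PBS with 0.5% NP-40 at 4°C. Values, from duplicates, describe thermal stability against control samples on a log2 fold-change scale.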
# nilotinib = compound: Cc1cn(-c2cc(NC(=O)c3ccc(C)c(Nc4nccc(-c5cccnc5)n4)c3)cc(C(F)(F)F)c2)cn1 [nilotinib]
# How it was run: as §1
# [1] = compound: Cc1nc(Nc2n[nH]c3c2CN(C(=O)N[C@H](CN(C)C)c2ccccc2)C3(C)C)c2sccc2n1
# How it was run: as §1
# dasatinib = compound: Cc1nc(Nc2ncc(C(=O)Nc3c(C)cccc3Cl)s2)cc(N2CCN(CCO)CC2)n1 [dasatinib]
# How it was run: as §1
# [2] = compound: Cc1ncc(-c2ccnc(Nc3ccc(S(C)(=O)=O)cc3)n2)n1C(C)C
# How it was run: as §1
# [3] = compound: Cn1cc(-c2ccc3c(c2)CCN3C(=O)Cc2cccc(C(F)(F)F)c2)c2c(N)ncnc21
# How it was run: as §1
# [4] = compound: Cn1cc(-c2ccc3nnc(C(F)(F)c4ccc5ncccc5c4)n3n2)cn1
# How it was run: as §1
# tipifarnib = compound: Cn1cncc1[C@@](N)(c1ccc(Cl)cc1)c1ccc2c(c1)c(-c1cccc(Cl)c1)cc(=O)n2C [tipifarnib]
# How it was run: as §1
# mubritinib = compound: FC(F)(F)c1ccc(/C=C/c2nc(COc3ccc(CCCCn4ccnn4)cc3)co2)cc1 [mubritinib]
# How it was run: as §1
# [5] = compound: NC(=O)Nc1cc(-c2cccc(F)c2)sc1C(=O)N[C@H]1CCCNC1
# How it was run: as §1
# [6] = compound: NC(=O)c1cnc(N[C@@H]2CCCC[C@@H]2N)nc1Nc1cccc(-n2nccn2)c1
# How it was run: as §1
# [7] = compound: NC1(c2ccc(-c3nc4ccn5c(=O)[nH]nc5c4cc3-c3ccccc3)cc2)CCC1
# How it was run: as §1
# [8] = compound: NCC(=O)Nc1ccc(-n2nc(C(F)(F)F)cc2-c2ccc3c(ccc4ccccc43)c2)cc1
# How it was run: as §1
# entinostat = compound: Nc1ccccc1NC(=O)c1ccc(CNC(=O)OCc2cccnc2)cc1 [entinostat]
# How it was run: as §1
# citarinostat = compound: O=C(CCCCCCNC(=O)c1cnc(N(c2ccccc2)c2ccccc2Cl)nc1)NO [citarinostat]
# How it was run: as §1
# silmitasertib = compound: O=C(O)c1ccc2c(c1)nc(Nc1cccc(Cl)c1)c1ccncc12 [silmitasertib]
# How it was run: as §1
# [9] = compound: O=C1NC(=O)C(c2cnc3ccccn23)=C1c1cn2c3c(cc(F)cc13)CN(C(=O)N1CCCCC1)CC2
# How it was run: as §1
# [10] = compound: c1cc(OCCN2CCCCC2)cc(-c2n[nH]c3ccc(-c4nnc[nH]4)cc23)c1
# How it was run: as §1
# [11] = compound: Cc1cccc(CC(=O)N2CCc3c2ccc(-c2cn(C)c4ncnc(N)c24)c3F)n1
# How it was run: as §1
# vorinostat = compound: O=C(CCCCCCC(=O)Nc1ccccc1)NO [vorinostat]
# How it was run: as §1
Target,log2 fold change (bafetinib),log2 fold change (nilotinib),log2 fold change [1],log2 fold change (dasatinib),log2 fold change [2],log2 fold change [3],log2 fold change [4],log2 fold change (tipifarnib),log2 fold change (mubritinib),log2 fold change [5],log2 fold change [6],log2 fold change [7],log2 fold change [8],log2 fold change (entinostat),log2 fold change (citarinostat),log2 fold change (silmitasertib),log2 fold change [9],log2 fold change [10],log2 fold change [11],log2 fold change (vorinostat)
FAM234A (UniProt Q9H0X4),inactive: -0.046,inactive: 0.006,inactive: -0.018,inactive: 0.038,inactive: -0.1,inactive: 0.185,inactive: -0.005,inactive: 0.09,inactive: -0.05,inactive: -0.012,inactive: 0.028,inactive: 0.134,inactive: -0.006,inactive: -0.106,inactive: -0.007,inactive: -0.083,inactive: 0.048,inactive: -0.051,–,–
FAM210B (UniProt Q96KR6),inactive: -0.09,inactive: -0.028,inactive: -0.024,inactive: 0.007,inactive: 0.035,inactive: 0.051,inactive: 0.02,–,–,inactive: -0.049,inactive: 0.023,–,inactive: 0.024,inactive: -0.021,inactive: 0.015,–,inactive: -0.057,inactive: -0.086,inactive: 0.02,inactive: -0.029
FAM241A (UniProt Q8N8J7),inactive: -0.143,inactive: -0.027,inactive: 0.029,inactive: 0.02,inactive: -0.095,inactive: 0.046,inactive: 0.049,inactive: 0.008,inactive: 0.028,active: 0.661,inactive: -0.033,inactive: -0.032,inactive: -0.004,active: 0.424,inactive: -0.09,inactive: 0.045,–,inactive: -0.058,inactive: -0.056,inactive: -0.005
FBXO44 (UniProt Q9H4M3),inactive: -0.121,inactive: 0.1,inactive: 0.056,–,inactive: 0.255,inactive: 0.252,inactive: 0.028,–,–,inactive: -0.021,–,–,–,inactive: 0.051,–,–,–,–,–,–
FAM234B (UniProt A2RU67),inactive: -0.022,–,–,–,–,inactive: 0.291,inactive: -0.1,inactive: 0.058,–,inactive: 0,inactive: 0.308,–,inactive: 0.107,inactive: -0.046,–,–,–,–,–,–
FAM76A isoform 3 (UniProt Q8TAV0),inactive: -0.098,–,–,–,–,–,–,inactive: 0.052,–,inactive: -0.149,inactive: -0.012,–,inactive: 0.115,inactive: -0.016,inactive: 0.052,–,inactive: 0.103,inactive: 0.159,inactive: -0.066,inactive: 0.069
FGGY isoform 3 (UniProt Q96C11),inactive: 0.024,–,–,inactive: -0.03,–,inactive: 0.032,inactive: -0.042,inactive: 0.104,inactive: 0.195,–,inactive: 0.048,inactive: -0.038,inactive: 0.116,–,–,inactive: -0.269,inactive: -0.062,–,inactive: 0.115,inactive: -0.017
FEN1 (UniProt P39748),inactive: 0.02,inactive: -0.149,inactive: 0.053,–,inactive: -0.05,inactive: 0.16,inactive: 0.164,inactive: -0.274,inactive: 0.314,inactive: -0.022,inactive: -0.154,inactive: -0.28,inactive: -0.157,inactive: 0.034,inactive: 0.111,inactive: -0.1,inactive: -0.129,inactive: 0.035,inactive: 0.23,inactive: 0.246
FBXO30 (UniProt Q8TB52),inactive: -0.06,inactive: -0.049,inactive: 0.017,inactive: -0.029,inactive: 0.034,inactive: 0.076,inactive: -0.011,inactive: -0.014,inactive: -0.004,inactive: -0.035,inactive: -0.032,inactive: -0.126,inactive: -0.007,inactive: -0.003,inactive: 0.069,inactive: 0.042,inactive: 0.01,inactive: -0.004,inactive: 0.084,inactive: -0.07
FAT2 (UniProt Q9NYQ8),inactive: 0.076,–,–,inactive: 0.006,–,inactive: 0.167,inactive: 0.002,inactive: 0.008,inactive: 0.354,–,–,inactive: -0.334,inactive: -0.134,–,inactive: -0.045,inactive: -0.063,inactive: -0.06,inactive: -0.06,inactive: -0.005,inactive: 0.068
FBH1 isoform 2 (UniProt Q8NFZ0),inactive: 0.004,inactive: -0.081,inactive: -0.003,–,inactive: 0.201,–,inactive: 0.044,inactive: -0.031,inactive: -0.287,inactive: -0.091,inactive: -0.167,inactive: -0.016,inactive: -0.149,inactive: 0.106,inactive: -0.038,inactive: 0.164,inactive: -0.221,inactive: 0.54,inactive: -0.038,inactive: 0.032
FNBP1L (UniProt Q5T0N5),inactive: 0.006,inactive: -0.286,inactive: 0.002,inactive: -0.013,inactive: 0.033,inactive: 0.103,inactive: 0.028,inactive: -0.037,inactive: -0.148,inactive: -0.128,inactive: -0.142,inactive: -0.008,inactive: 0.006,inactive: -0.242,–,inactive: 0.032,–,–,inactive: -0.035,inactive: -0.013
FAM219A (UniProt Q8IW50),inactive: -0.032,inactive: -0.304,inactive: 0.044,inactive: 0.201,inactive: -0.037,inactive: 0.043,–,inactive: 0.066,inactive: -0.028,inactive: -0.002,inactive: 0.028,inactive: 0.051,–,inactive: -0.04,inactive: -0.024,inactive: -0.047,inactive: -0.041,inactive: -0.124,–,–
FHAD1 isoform 3 (UniProt B1AJZ9),inactive: -0.678,–,–,inactive: -0.037,–,inactive: 0.218,inactive: -0.075,inactive: 0.133,–,–,inactive: -0.049,–,inactive: 0.017,–,–,–,–,–,inactive: 0.074,inactive: 0.264
FKRP (UniProt Q9H9S5),inactive: -0.128,inactive: 0.019,inactive: 0.009,inactive: -0.032,inactive: -0.017,–,inactive: 0.063,inactive: -0.003,inactive: 0.077,inactive: -0.098,inactive: -0.048,inactive: -0.01,inactive: 0.032,inactive: -0.099,inactive: 0.149,inactive: 0.041,inactive: 0.017,inactive: -0.307,inactive: 0.047,inactive: -0.046
FHL2 (UniProt Q14192),inactive: -0.052,inactive: -0.018,inactive: 0.003,inactive: 0.022,inactive: -0.009,inactive: -0.053,inactive: 0.007,inactive: 0.02,inactive: 0.009,inactive: -0.007,inactive: 0,inactive: 0.026,inactive: 0,inactive: -0.035,inactive: -0.013,inactive: 0.012,inactive: -0.027,inactive: -0.019,inactive: -0.081,inactive: -0.018
FIBP (UniProt O43427),inactive: -0.096,–,–,inactive: -0.201,–,inactive: 0.118,inactive: -0.06,inactive: -0.029,inactive: 0.134,inactive: -0.018,inactive: 0.023,inactive: 0.011,inactive: -0.117,inactive: -0.005,inactive: 0.297,inactive: -0.05,inactive: -0.031,inactive: -0.106,inactive: -0.093,inactive: -0.067
FBLN1 (UniProt P23142),inactive: -0.248,inactive: 0.117,inactive: 0.103,inactive: 0.088,inactive: 0.196,inactive: 0.269,inactive: -0.051,inactive: 0.21,inactive: -0.269,inactive: -0.103,inactive: -0.011,inactive: 0.125,inactive: -0.058,inactive: -0.057,inactive: -0.068,inactive: 0.192,inactive: 0.108,inactive: 0.506,inactive: -0.083,inactive: 0.05
FGB (UniProt P02675),inactive: -0.053,inactive: -0.023,inactive: 0.235,–,inactive: 0.112,inactive: 0.227,inactive: 0.107,–,inactive: -0.079,inactive: 0.049,inactive: 0.042,inactive: 0.077,inactive: 0.02,inactive: -0.051,inactive: -0.205,inactive: -0.064,–,inactive: -0.14,inactive: -0.051,inactive: 0.083

# Reformatted: results already given.
Target | log2 fold change (bafetinib) | log2 fold change (nilotinib) | log2 fold change [1] | log2 fold change (dasatinib) | log2 fold change [2] | log2 fold change [3] | log2 fold change [4] | log2 fold change (tipifarnib) | log2 fold change (mubritinib) | log2 fold change [5] | log2 fold change [6] | log2 fold change [7] | log2 fold change [8] | log2 fold change (entinostat) | log2 fold change (citarinostat) | log2 fold change (silmitasertib) | log2 fold change [9] | log2 fold change [10] | log2 fold change [11] | log2 fold change (vorinostat)
FHAD1 isoform 3 (UniProt B1AJZ9) | inactive: -0.678 | – | – | inactive: -0.037 | – | inactive: 0.218 | inactive: -0.075 | inactive: 0.133 | – | – | inactive: -0.049 | – | inactive: 0.017 | – | – | – | – | – | inactive: 0.074 | inactive: 0.264
FBLN1 (UniProt P23142) | inactive: -0.248 | inactive: 0.117 | inactive: 0.103 | inactive: 0.088 | inactive: 0.196 | inactive: 0.269 | inactive: -0.051 | inactive: 0.21 | inactive: -0.269 | inactive: -0.103 | inactive: -0.011 | inactive: 0.125 | inactive: -0.058 | inactive: -0.057 | inactive: -0.068 | inactive: 0.192 | inactive: 0.108 | inactive: 0.506 | inactive: -0.083 | inactive: 0.05
